These are yes or no findings as the source states them, for the method shown. For some of these results: Binding seen in cells or lysates may run through a third protein. Some entries that bind do so weakly or less than the wild type.
How the values were obtained:
[1] = target: T1, IRAG2 (mouse (endogenous in platelets)) (UniProt Q60664); assay: co-IP; murine platelets; co-immunoprecipitation with anti-IRAG2 antibody, SDS-PAGE and Western blot
T1 sequence: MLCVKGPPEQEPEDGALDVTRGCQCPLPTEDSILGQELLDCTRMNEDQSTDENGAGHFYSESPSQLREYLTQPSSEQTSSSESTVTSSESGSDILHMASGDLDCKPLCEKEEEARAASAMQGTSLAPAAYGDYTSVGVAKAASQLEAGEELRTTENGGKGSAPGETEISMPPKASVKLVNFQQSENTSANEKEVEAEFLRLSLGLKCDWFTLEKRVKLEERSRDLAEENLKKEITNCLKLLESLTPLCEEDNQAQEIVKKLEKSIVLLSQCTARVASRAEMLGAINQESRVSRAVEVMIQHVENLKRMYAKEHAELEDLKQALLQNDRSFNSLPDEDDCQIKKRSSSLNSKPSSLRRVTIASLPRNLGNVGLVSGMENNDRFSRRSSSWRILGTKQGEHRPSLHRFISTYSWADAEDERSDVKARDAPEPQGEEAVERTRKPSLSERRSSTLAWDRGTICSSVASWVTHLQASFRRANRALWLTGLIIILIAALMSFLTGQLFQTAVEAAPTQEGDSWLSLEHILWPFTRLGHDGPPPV

The chains behind the UniProt entries cited, without tags or fusion partners. Residues count along the entry.
UniProt P16066, residues 33-1061: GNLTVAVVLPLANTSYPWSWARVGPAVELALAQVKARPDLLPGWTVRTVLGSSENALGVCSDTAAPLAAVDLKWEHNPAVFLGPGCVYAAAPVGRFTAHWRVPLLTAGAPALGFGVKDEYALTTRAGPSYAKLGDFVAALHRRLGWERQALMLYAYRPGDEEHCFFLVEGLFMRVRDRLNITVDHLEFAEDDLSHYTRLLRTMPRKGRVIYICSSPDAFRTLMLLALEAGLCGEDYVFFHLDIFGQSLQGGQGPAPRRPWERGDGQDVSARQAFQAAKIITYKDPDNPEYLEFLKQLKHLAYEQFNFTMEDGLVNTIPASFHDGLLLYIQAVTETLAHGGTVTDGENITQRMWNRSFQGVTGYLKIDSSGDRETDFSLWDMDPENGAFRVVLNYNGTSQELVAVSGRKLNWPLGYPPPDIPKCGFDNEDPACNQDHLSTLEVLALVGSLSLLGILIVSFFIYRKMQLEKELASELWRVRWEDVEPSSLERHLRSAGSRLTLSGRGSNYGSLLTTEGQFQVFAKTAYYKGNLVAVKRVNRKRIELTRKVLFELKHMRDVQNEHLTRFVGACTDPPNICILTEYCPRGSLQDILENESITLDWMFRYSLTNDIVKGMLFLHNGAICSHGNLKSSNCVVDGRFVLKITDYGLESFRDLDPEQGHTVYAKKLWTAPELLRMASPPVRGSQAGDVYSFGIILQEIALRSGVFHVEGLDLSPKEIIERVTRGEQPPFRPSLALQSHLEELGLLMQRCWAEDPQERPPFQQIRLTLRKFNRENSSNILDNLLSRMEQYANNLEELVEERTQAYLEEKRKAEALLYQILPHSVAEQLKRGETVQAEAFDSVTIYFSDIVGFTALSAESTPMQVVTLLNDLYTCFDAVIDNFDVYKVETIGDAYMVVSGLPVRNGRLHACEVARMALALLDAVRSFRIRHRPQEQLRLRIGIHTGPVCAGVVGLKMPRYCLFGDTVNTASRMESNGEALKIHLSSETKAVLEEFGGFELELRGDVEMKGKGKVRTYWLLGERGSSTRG
UniProt P20594, residues 23-1047: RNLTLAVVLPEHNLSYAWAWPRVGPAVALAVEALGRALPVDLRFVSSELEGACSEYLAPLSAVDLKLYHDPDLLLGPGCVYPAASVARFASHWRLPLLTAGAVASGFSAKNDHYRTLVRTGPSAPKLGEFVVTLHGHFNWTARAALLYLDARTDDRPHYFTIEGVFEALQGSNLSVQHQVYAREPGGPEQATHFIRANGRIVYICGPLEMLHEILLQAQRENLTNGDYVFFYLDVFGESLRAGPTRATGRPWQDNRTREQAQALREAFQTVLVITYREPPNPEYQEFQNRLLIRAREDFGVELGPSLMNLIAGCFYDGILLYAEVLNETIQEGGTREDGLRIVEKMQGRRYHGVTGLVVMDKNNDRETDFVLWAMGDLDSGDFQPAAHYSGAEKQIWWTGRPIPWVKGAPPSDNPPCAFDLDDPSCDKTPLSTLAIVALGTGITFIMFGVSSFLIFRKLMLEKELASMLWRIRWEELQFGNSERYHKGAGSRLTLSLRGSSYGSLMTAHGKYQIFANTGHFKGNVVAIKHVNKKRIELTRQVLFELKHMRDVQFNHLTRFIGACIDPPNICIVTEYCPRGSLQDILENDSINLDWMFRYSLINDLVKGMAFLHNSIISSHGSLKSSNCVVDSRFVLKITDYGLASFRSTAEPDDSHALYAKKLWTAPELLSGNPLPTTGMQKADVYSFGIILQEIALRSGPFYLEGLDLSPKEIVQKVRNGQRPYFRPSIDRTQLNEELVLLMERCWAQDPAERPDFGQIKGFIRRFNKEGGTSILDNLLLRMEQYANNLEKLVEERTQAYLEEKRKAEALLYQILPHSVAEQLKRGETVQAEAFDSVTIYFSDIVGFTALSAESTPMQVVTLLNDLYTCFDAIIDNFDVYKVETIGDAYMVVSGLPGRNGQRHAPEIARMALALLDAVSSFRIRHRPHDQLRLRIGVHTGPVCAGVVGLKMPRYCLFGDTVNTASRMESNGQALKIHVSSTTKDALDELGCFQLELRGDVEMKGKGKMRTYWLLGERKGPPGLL
UniProt P48679, residues 1-647: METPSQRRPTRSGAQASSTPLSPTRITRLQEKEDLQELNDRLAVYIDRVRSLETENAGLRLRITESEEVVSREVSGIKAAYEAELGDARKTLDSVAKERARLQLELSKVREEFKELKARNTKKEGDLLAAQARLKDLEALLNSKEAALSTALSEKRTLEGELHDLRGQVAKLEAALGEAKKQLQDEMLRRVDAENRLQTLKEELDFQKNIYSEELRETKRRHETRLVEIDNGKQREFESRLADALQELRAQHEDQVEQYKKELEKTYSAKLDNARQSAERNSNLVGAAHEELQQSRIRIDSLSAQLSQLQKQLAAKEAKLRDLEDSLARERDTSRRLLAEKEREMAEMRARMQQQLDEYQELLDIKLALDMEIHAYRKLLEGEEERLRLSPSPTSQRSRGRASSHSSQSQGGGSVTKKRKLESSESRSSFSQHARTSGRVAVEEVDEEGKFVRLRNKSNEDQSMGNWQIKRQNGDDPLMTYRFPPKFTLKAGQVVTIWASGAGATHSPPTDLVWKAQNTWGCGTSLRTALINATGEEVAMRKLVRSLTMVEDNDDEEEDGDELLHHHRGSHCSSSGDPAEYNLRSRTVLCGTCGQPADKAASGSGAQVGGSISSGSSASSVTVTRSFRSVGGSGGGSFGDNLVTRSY
UniProt Q99418: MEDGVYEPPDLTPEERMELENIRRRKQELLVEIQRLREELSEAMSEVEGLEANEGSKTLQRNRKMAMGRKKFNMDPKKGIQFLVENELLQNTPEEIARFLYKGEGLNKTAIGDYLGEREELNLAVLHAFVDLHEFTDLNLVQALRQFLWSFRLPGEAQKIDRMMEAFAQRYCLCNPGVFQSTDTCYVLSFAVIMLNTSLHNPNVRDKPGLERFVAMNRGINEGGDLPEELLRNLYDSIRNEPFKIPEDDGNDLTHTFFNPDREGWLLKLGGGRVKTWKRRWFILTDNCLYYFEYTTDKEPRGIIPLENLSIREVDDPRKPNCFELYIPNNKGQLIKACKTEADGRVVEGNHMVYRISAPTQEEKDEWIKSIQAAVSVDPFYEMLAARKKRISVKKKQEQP
UniProt P70227: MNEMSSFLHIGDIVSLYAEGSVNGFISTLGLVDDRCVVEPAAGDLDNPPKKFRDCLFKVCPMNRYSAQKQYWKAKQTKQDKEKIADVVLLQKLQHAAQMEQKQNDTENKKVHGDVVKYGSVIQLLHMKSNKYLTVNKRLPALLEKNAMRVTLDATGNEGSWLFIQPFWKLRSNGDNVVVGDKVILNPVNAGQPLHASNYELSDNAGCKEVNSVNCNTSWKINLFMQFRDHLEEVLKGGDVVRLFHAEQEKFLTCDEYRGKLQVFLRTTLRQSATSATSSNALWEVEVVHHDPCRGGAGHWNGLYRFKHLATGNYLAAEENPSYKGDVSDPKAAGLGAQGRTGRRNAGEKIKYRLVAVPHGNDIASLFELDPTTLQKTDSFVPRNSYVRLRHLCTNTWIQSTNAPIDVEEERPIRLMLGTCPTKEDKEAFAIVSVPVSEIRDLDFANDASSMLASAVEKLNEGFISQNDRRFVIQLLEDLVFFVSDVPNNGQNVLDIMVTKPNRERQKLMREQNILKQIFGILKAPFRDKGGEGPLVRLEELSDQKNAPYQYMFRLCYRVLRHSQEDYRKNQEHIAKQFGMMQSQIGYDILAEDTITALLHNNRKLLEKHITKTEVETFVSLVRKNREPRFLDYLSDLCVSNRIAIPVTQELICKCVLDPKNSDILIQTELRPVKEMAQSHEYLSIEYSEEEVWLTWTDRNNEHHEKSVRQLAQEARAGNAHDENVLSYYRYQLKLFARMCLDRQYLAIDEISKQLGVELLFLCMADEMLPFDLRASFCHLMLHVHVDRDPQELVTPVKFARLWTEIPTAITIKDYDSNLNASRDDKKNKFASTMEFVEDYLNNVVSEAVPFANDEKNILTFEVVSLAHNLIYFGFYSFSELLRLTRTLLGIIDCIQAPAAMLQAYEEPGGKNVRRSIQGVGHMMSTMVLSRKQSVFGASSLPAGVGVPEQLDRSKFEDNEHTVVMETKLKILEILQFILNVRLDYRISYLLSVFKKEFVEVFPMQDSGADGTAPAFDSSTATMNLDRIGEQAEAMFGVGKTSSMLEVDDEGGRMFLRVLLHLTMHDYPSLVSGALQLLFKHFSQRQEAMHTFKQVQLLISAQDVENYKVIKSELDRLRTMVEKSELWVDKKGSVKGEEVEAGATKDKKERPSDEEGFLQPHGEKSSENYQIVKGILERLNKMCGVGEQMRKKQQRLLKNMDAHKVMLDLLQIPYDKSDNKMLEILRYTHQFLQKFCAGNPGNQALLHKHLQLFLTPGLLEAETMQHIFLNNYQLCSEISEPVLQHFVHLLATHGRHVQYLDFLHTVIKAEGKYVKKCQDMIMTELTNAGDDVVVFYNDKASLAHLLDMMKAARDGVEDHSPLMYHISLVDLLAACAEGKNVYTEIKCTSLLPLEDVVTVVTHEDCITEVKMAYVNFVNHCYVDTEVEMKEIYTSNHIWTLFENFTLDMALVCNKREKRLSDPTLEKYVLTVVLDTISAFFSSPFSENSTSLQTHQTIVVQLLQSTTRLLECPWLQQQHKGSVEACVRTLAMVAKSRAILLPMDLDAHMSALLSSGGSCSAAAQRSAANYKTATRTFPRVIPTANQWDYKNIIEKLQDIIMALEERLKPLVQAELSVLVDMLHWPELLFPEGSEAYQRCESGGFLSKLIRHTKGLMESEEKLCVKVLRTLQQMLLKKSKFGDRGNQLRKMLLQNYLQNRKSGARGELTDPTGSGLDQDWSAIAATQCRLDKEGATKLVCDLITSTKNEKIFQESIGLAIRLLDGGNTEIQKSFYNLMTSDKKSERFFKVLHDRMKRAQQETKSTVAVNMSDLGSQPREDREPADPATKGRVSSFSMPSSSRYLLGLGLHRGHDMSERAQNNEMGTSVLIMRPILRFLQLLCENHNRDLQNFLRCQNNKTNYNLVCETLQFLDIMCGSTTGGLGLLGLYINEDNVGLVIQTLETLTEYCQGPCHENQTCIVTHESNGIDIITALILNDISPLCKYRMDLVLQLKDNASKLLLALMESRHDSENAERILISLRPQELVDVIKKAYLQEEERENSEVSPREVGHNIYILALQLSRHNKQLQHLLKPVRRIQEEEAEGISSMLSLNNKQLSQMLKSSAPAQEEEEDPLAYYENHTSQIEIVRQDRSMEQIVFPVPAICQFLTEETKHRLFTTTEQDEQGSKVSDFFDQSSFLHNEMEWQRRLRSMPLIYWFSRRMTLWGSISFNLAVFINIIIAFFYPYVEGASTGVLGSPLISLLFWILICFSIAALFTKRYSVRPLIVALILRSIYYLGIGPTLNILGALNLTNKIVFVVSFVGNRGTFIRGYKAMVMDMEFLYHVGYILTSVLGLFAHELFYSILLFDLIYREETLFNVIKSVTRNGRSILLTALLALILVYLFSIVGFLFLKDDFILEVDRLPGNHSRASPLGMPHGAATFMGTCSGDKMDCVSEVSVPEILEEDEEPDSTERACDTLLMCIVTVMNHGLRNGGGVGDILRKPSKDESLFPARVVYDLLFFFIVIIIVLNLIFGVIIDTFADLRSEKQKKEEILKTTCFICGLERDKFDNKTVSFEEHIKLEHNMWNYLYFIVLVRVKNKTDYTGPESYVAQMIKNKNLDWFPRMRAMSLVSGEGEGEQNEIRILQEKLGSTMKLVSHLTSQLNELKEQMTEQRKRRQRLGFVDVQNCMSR
UniProt Q9UIA0: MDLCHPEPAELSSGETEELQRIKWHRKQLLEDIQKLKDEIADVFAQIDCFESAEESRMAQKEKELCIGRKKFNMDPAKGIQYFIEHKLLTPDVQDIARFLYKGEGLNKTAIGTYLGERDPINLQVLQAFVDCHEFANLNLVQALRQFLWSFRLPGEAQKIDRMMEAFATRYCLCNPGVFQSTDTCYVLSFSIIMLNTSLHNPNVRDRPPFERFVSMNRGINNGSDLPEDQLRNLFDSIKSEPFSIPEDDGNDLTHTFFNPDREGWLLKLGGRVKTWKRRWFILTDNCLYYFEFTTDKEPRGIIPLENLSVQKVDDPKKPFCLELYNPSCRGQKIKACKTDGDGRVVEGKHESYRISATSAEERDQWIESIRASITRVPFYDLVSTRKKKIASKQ

[2] = target: Vimentin (rat (endogenous in RAOSMC)) (UniProt P31000); assay: disome-selective profiling (DiSP); RAOSMC; monosomes and nascent-chain-coupled disomes separated by sucrose gradient after RNase digestion, footprints sequenced; co-co assembly of nascent chains
NP receptor NPR-A = NP receptor NPR-A (UniProt P16066); assay: co-IP; transfected HEK293 cells
NP receptor NPR-B = NP receptor NPR-B (UniProt P20594); assay: co-IP; transfected HEK293 cells
[3] = target: Lamin A/C (rat (endogenous in RAOSMC)) (UniProt P48679); assay: disome-selective profiling (DiSP); RAOSMC; monosomes and nascent-chain-coupled disomes separated by sucrose gradient after RNase digestion, footprints sequenced; co-co assembly of nascent chains

## IP3R2 (from UniProt Q9Z329 1-2701) (receptor)
[1]
  binding: binds

## Vimentin (from UniProt P31000 1-466)
[2]
  binding: binds

## cytohesin-2 (from UniProt Q99418 1-400)
NP receptor NPR-A
  binding: binds
NP receptor NPR-B
  binding: binds

## IP3R3 (from UniProt P70227 1-2670) (receptor)
[1]
  binding: binds

## Lamin A/C (from UniProt P48679 1-647)
[3]
  binding: binds

## cytohesin-4 (from UniProt Q9UIA0 1-394)
NP receptor NPR-A
  binding: binds
NP receptor NPR-B
  binding: binds

## IP3R1 (from UniProt P11881 1-2749) (receptor)
[1]
  binding: binds

B1: IRAG1 (protein, UniProt Q9WUX5 1-899)
chain: MGRSLTCPFGISPACGAQASWSIFGVGTAEVPGTHSHSNQAAAMPHIPEDEEPPGEPQAAQTQDSPSAGPFPSPPTIVLTGDASSPEGETDKNLVNRAPSPHRRLSHRHLKVSTASLTSVDPSGHVIDLVNDQLPDISISEEDKKKNLALLEEAKLVSERFLTRRGRKSRSSLGDSPSAVSPNLSSGASPASSRSCSLTISTSPGLDICSGPQSPLPGAPPQQKGHEDGVSSPCPGEPNVSKGLADLKQNDQRKVSQGRLAPRSPTVEKTKELTVEQKENFDPLQHVEATPMAQASGASISGKMALNSPQPGPAEMELGRQLLKTAREGNPLPRTTAQGSGGTVSPHSLGQGSAGEPMGPKAGSKAELRSPVSRPPLIRGVSWDSSPEEPGPLLQKVLAKLPLAEEEKRFPGKAKPAKPPGLKDFQIQVQPVRMQKLTKLREEHILMRNQNLVGFKLPELSEAAEQDKGVSPELAPAAEEEESKSGLDVMPNISDILLRKLRVHKSLTGSAPPLTEKEVENVFVQLSLAFRNDSYTLESRINQAERERNLTEENTEKELENFKASITSSANIWYHCEHRETYQKLLEDIAVLHRLAARLSSRAEVVGAVRQEKRMSKATEVMMQYVENLKRTYEKDHAELMEFKKLANQNSSRSCGPSEDGVPRTARSMSLTMGKNMPRRRVSVAVVPKFNALNLPGQAPSSSPMPSLPALSESSNGKSSISVSPALPALLENGKTNAEANCEVGAPVPLPSCLEETSQETKAKAEEEAYSKGYQEGVKKTEELQDLKEEEEEEQKTESPEEPEEVEETQEDEKDQGSSKLEELVHFLQVMYPKLCQHWQVIWMMAAVMLVLSVVLGLYSSYNSCTEEADGPPGRSTCSAAQRDSWWSSGLQQELPAEQ
[1]
  binding: no binding

— PMC9887734, “Meeting abstracts from the 10th International Conference on cGMP: Generators, Effectors and Therapeutic Implications” (Journal of Translational Medicine, 2023)
